Results as given in article PMC7989033.
No constants are given. Whether binding was seen depends on the method and setting. In cells and extracts the contact can be indirect. Some entries that bind do so weakly or less than the wild type.

Protein sequences, listed by entry. Tags and fused reporters are not part of them.
UniProt P08670: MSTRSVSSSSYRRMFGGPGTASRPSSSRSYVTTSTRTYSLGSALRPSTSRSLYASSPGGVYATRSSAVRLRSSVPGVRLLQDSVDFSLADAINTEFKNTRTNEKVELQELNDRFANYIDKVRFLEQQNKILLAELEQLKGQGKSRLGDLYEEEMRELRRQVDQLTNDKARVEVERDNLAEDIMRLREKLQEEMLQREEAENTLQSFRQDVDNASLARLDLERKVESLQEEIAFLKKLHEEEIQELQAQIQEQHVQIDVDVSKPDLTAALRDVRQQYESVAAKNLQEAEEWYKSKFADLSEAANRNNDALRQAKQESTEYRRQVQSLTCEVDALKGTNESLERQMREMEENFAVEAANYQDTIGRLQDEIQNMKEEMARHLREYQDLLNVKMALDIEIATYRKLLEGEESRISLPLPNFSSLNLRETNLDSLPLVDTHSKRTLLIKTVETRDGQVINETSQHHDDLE

Target: T1, CKLF like MARVEL transmembrane domain containing 6 (UniProt Q9NX76)
T1 sequence: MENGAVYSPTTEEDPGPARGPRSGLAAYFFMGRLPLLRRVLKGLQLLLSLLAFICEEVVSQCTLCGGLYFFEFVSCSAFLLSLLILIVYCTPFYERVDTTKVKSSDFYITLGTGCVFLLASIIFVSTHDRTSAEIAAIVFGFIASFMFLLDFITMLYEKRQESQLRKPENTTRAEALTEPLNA
Experiment: co-IP; reciprocal co-IP from lysates of Bel-7402 and MHCC-97H cells; 5 µg primary antibody (anti-CMTM6 or anti-vimentin), protein agarose beads, 4 °C for 2 h; western blotting of input and precipitates

vimentin (from UniProt P08670 1-466)
binding: binds
